This series is described as follows: general procedure: peptide synthesis; pentafluorophenyl ester (pentafluorophenol, N,N'-dicyclohexylcarbodiimide). To be noted: trifluoroacetate.

The values that follow come from patent US7022669B1 (Aventis Pharma S.A., priority 1999, dated 2006).

“1-[(4R,5R)-4,5-dihydroxy-N-2-[[4′-(octyloxy)[1,1′-biphenyl]-4-yl]-carbonyl]-L-ornithine]-4-[4-(4-hydroxy-phenyl)-L-threonine]-5-L-serine echinocandin B” came in with a step yield (lipidation step) of 73%.

“1-[N2-[[4′-(octyloxy)-[1,1′-biphenyl]-4-yl] carbonyl]-4-oxo-L-ornithine]-4-[4-(4-hydroxyphenyl)-L-threonine]-5-L-serine-echinocandine B” showed a step yield (late stage modification step) of 55%.
